No constants are given. Whether binding was seen depends on the method and setting. Binding seen in cells or lysates may run through a third protein. A yes stands for co-enrichment or nearness to the bait. Other partners may have been found.
Target: SARS-CoV-2 nsp14, Strep II-tagged (SARS-CoV-2) (UniProt P0DTD1)
Assay: affinity purification with mass spectrometry

Protein sequences, listed by entry. Tags and fused reporters are not part of them. Residues count along the entry.
UniProt Q9H1K1, residues 35-167: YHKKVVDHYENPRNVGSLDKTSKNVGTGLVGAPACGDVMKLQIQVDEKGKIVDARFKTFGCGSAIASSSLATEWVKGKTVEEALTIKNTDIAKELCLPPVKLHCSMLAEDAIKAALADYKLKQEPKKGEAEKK

Row | Molecule | binding
1 | ISCU (iron-sulfur cluster assembly scaffold) (from UniProt Q9H1K1 35-167) | binds
2 | PCBP1 (from UniProt Q15365 1-356) | binds
3 | BOLA2 (protein, UniProt Q9H3K6 1-86) MELSAEYLREKLQRDLEAEHVEVEDTTLNRCSCSFRVLVVSAKFEGKPLLQRHRLVNACLAEELPHIHAFEQKTLTPDQWARERQK | binds

Source: publication PMC12356973
